The values below come from patent publication US10894770B2, “Fullerene derivative and n-type semiconductor material” (DAIKIN INDUSTRIES, LTD., priority 2015, dated 2021).

This series in a line: Solar cell for testing with the fullerene derivative as n-type semiconductor and PTB7 as p-type; current and voltage under pseudo solar light irradiation. The following applies: for FF (fill factor) / Open Voltage / Short-circuit Current / Conversion Efficiency: P-type semiconductor material PTB7, pseudo solar light of 100 mW; for Conversion Efficiency: FF(Voc×Jsc/Pin)×100; for Voc: open voltage as listed in Table 2 beside the LUMO level.

SMILES strings stand for the structures.

For the compound `CCCCC(CC)CC1N(c2ccccc2)C(c2ccccc2)C23c4c5c6c7c8c9c(c%10c%11c2c2c%12c4c4c%13c5c5c7c7c8c8c%14c9c%10c9c%10c%11c2c2c%11c%12c4c4c%12c%13c5c5c7c7c8c8c%14c9c9c%10c2c2c%11c4c4c%12c5c7c5c8c9c2c45)C613` (centres unmarked) [Compound 2], the “FF (fill factor)” value was 0.61, the “Open Voltage” value came to 0.82 V, the “Short-circuit Current” value turned out to be 14.96 mA/cm^2 and the “Conversion Efficiency” value is 7.48%. Besides, the Voc turned out to be 0.82 V.
As to `CCCCCCC1N(c2ccccc2)C(c2ccccc2)C23c4c5c6c7c8c9c(c%10c%11c2c2c%12c4c4c%13c5c5c7c7c8c8c%14c9c%10c9c%10c%11c2c2c%11c%12c4c4c%12c%13c5c5c7c7c8c8c%14c9c9c%10c2c2c%11c4c4c%12c5c7c5c8c9c2c45)C613` (centres unmarked) [Compound 1], the “FF (fill factor)” value stood at 0.63, the “Open Voltage” value is 0.79 V, the “Short-circuit Current” value is 14.52 mA/cm^2 and the “Conversion Efficiency” value was 7.28%. In addition, the Voc amounted to 0.79 V.
As for `C1=CC2=c3ccc4c5ccc6c7ccc8c9ccc%10c%11c%12c%13c%14c(c3c4c3c5c6c4c7c8c(c%119)c%13c4c%143)C23C(c2ccccc2)N(c2ccccc2)CC%123C=%101` (centres unmarked) [Control Compound 1, reference compound], the “FF (fill factor)” value is 0.63, the “Open Voltage” value came out at 0.75 V, the “Short-circuit Current” value was 15.48 mA/cm^2 and the “Conversion Efficiency” value stood at 7.34%. The Voc is recorded as 0.75 V.
For `COCCOCCOCC1N(c2ccccc2)C(c2ccccc2)C23c4c5c6c7c8c9c(c%10c%11c2c2c%12c4c4c%13c5c5c7c7c8c8c%14c9c%10c9c%10c%11c2c2c%11c%12c4c4c%12c%13c5c5c7c7c8c8c%14c9c9c%10c2c2c%11c4c4c%12c5c7c5c8c9c2c45)C613` (centres unmarked) [Compound 3], the “FF (fill factor)” value turned out to be 0.65, the “Open Voltage” value amounted to 0.79 V, the “Short-circuit Current” value was 13.66 mA/cm^2 and the “Conversion Efficiency” value is reported as 6.96%. Moreover, the Voc came out at 0.79 V.
Take `COC(=O)CCCC1(c2ccccc2)C23c4c5c6c7c8c9c(c%10c%11c2c2c%12c4c4c%13c5c5c7c7c8c8c%14c9c%10c9c%10c%11c2c2c%11c%12c4c4c%12c%13c5c5c7c7c8c8c%14c9c9c%10c2c2c%11c4c4c%12c5c7c5c8c9c2c45)C613` (centres unmarked) [[60]PCBM, [6,6]-phenyl-C61-butyric acid methyl ester, reference compound]: the Voc was 0.736 V.
As for `CCCCOCC1N(c2ccccc2)C(c2ccccc2)C23c4c5c6c7c8c9c(c%10c%11c2c2c%12c4c4c%13c5c5c7c7c8c8c%14c9c%10c9c%10c%11c2c2c%11c%12c4c4c%12c%13c5c5c7c7c8c8c%14c9c9c%10c2c2c%11c4c4c%12c5c7c5c8c9c2c45)C613` (centres unmarked) [Compound 4], the “FF (fill factor)” value worked out at 0.60, the “Open Voltage” value amounted to 0.79 V, the “Short-circuit Current” value stood at 14.86 mA/cm^2 and the “Conversion Efficiency” value stood at 7.00%. The compound also displayed a Voc of 0.79 V.
As to `CCCCC(CC)CC1N(c2ccccc2)C(C)(C)C23c4c5c6c7c8c9c(c%10c%11c2c2c%12c4c4c%13c5c5c7c7c8c8c%14c9c%10c9c%10c%11c2c2c%11c%12c4c4c%12c%13c5c5c7c7c8c8c%14c9c9c%10c2c2c%11c4c4c%12c5c7c5c8c9c2c45)C613` (centres unmarked) [Compound 7], the “FF (fill factor)” value is 0.59, the “Open Voltage” value is 0.82 V, the “Short-circuit Current” value is 14.20 mA/cm^2 and the “Conversion Efficiency” value is 6.84%.
Consider `CCCCCCC1N(c2ccccc2)CC23C4=c5ccc6c7ccc8c9ccc%10c%11ccc%12c%13c(c%14c%15c2c5c6c2c7c8c5c9c%10c(c%13%11)c%14c5c%152)C13C=%12C=C4` (centres unmarked) [Control Compound 2, reference compound], for which the “FF (fill factor)” value worked out at 0.67, the “Open Voltage” value is given as 0.76 V, the “Short-circuit Current” value is listed as 14.21 mA/cm^2 and the “Conversion Efficiency” value is given as 7.27%. This compound also yielded a Voc of 0.76 V.
